Laboratory results taken from PubChem BioAssay AID2685 (National Center for Advancing Translational Sciences (NCATS), 2010).
The other results are listed elsewhere or left out. These are further read-outs of the screen, such as a control signal, another cell line or another target. No call is given for them. The list favours compounds with an active or inconclusive main result. Words in brackets tell the shape of the fitted curve; partial curves, single points and poor fits give uncertain potencies.

Experiment: qHTS Assay for Lipid Storage Modulators in Drosophila S3 Cells;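 as to cell number change: cells counted by Cell Tracker Red CMTPX staining in the red channel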
Conditions: BODIPY lipid droplet fluorescence, 18-24 h; for cell number change: measured here: cell count max response, cells fed with added oleic acid
Summary of the method: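 Laser-scanning cytometry quantifies lipid droplet accumulation (500–530 nm total intensity; droplet/cell object ratio) in oleic acid-fed (400 uM added) Drosophila S3 cells treated with a concentration series. 20 uM Triacsin C defined 100% inhibition.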

[1] = measured here: cell number channel AC50, cells fed with added oleic acid
[2] = measured here: lipid fluorescence (Fed channel) AC50, cells fed with added oleic acid

| SMILES | cell number change [%] | AC50 [1] | AC50 [2] |
| --- | --- | --- | --- |
| CC(C)n1ncc2c(C(=O)N3CCN(c4ccc(F)cc4)CC3)cc(-c3ccccc3)nc21 | -1.42 | 2.06 µM [rising, single point] | 0.411 µM [rising, partial curve] |
| Cc1ccc(CN2CCN(CC(=O)NCCCN3CCN(c4ccc(F)cc4)CC3)C2=O)cc1 | -12.6 |  | 29.1 µM [falling, single point] |
| CCOc1cc(NC(=O)c2cccs2)c(OCC)cc1NC(=O)CCC(=O)NCC1CCCO1 (centres undefined) |  |  | 0.00461 µM [falling, full curve, poor fit] |
| Cc1ccc(-n2ncc3c(=O)[nH]c(SCC(=O)N4CCCCC4)nc32)cc1 |  | 0.231 µM [falling, full curve, poor fit] | 1.3 µM [falling, full curve] |
| O=C(CSc1nnc(NC(=O)C2CCC2)s1)Nc1ccccc1 | 40.8 |  |  |
| Cc1ccc(Nc2nc(CSc3nnc(-c4ccccc4)n3C)cs2)cc1 | 30.4 | 23.1 µM [rising, single point] | 16.4 µM [rising, partial curve, poor fit] |
| CS(=O)(=O)N(CCc1ccccc1)CC(=O)N1CCCCC1 | -21.7 | 0.461 µM [rising, single point] | 4.11 µM [falling, full curve] |
| C/[N+]([O-])=C\c1ccc([N+](=O)[O-])o1 |  |  | 1.64 µM [falling, partial curve, poor fit] |
| CC(=O)Nc1cccc(C(=O)NC2CCCc3c2cnn3-c2ccccc2F)c1 (centres undefined) | 0.763 |  | 5.8 µM [falling, single point] |
| COc1cccc(OC)c1C(=O)Nc1ccc(CN2CCCCC2)cc1 | 11.3 |  | 29.1 µM [falling, single point] |
| CCOC(=O)c1ccc(NC(=O)c2sc3nc4n(c(=O)c3c2C)CCC4)cc1 | -3.62 | 0.0651 µM [rising, full curve, poor fit] |  |
| Brc1cccc(CN2CCCCCC2)c1 | 7.72 |  | 29.1 µM [rising, single point] |
| [N-]=[N+]=CC(=O)CCCN1C(=O)c2ccccc2C1=O | 22.4 | 0.116 µM [rising, full curve, poor fit] |  |
| COc1ccc(CC(=O)Nc2nc(C)cs2)cc1S(=O)(=O)N1CCOCC1 |  | 0.58 µM [rising, single point] | 14.6 µM [falling, partial curve, poor fit] |
| COc1ccc(NC(=O)c2c(Cl)nc3ccccn23)cc1 |  | 0.092 µM [rising, single point] |  |

Exported tab-delimited: part of the list above
SMILES	cell number change [%]	AC50 [1]	AC50 [2]
CS(=O)(=O)N(CCc1ccccc1)CC(=O)N1CCCCC1	-21.7	0.461 µM [rising, single point]	4.11 µM [falling, full curve]
C/[N+]([O-])=C\c1ccc([N+](=O)[O-])o1			1.64 µM [falling, partial curve, poor fit]
